{"source": "PubChem BioAssay AID590", "about": "(National Center for Advancing Translational Sciences (NCATS), 2007)", "note": "In all, about 59,000 compounds went through this assay and about 6,500 (11%) were called active. Inconclusive results, whose numbers are uncertain, are shown with a selection of clear calls. Rule as the data show it: active = max dye-equivalent concentration above about 10 nM; inconclusive = mostly about 1.1 nM to 9.6 nM; inactive = weaker than that.", "data": [{"test": "qHTS Assay for Spectroscopic Profiling in A350 Spectral Region", "conditions": "Compound autofluorescence, 340/450 nm, Alexa 350 dye-equivalents; active compounds read high", "values": [{"smiles": "Cc1ccc2c(CSc3nc4ccccc4c(=O)n3CCCO)cc(=O)oc2c1", "max dye-equivalent concentration": "inactive"}, {"smiles": "CCOC(=O)c1cc(-c2ccc3c(c2)OCCO3)nc2c1c(C)nn2CCC#N", "max dye-equivalent concentration": "active: 80 nM"}, {"smiles": "CS(=O)(=O)c1ccc2nc(NC(=O)Oc3ccccc3)sc2c1", "max dye-equivalent concentration": "active: 83 nM"}, {"smiles": "CC(C)(C)NC(=O)CN(C(=O)CS(=O)CC(=O)Nc1ccc(F)cc1)c1ccc(Cl)cc1", "note": "(centres undefined)", "max dye-equivalent concentration": "inactive"}, {"smiles": "Cc1cc(C)cc(NC(=O)C2CCN(S(=O)(=O)c3c(C)n[nH]c3C)CC2)c1", "max dye-equivalent concentration": "active: 12 nM"}, {"smiles": "CCOc1nc(-c2ccc(OC)cc2)ccc1-c1noc(C)n1", "max dye-equivalent concentration": "active: 67 nM"}, {"smiles": "CCCn1c(=O)n(C)c(=O)c2c3oc(=O)c(NC(=O)c4ccc(F)cc4)cc3[nH]c21", "max dye-equivalent concentration": "inconclusive: 1.3 nM"}, {"smiles": "CCOC(=O)c1[nH]c2ccc(OCC)cc2c1NC(=O)CN1CCN(c2ccccn2)CC1", "max dye-equivalent concentration": "active: 57 nM"}, {"smiles": "CC(=O)c1cccc(-n2c(CCC(=O)O)ccc2-c2cccs2)c1", "max dye-equivalent concentration": "inactive"}, {"smiles": "CCSc1nnc(NC(=O)CSc2nc3c(c(=O)n2-c2ccccc2)SCC3)s1", "max dye-equivalent concentration": "inconclusive: 3.4 nM"}, {"smiles": "COCCCn1c2nc3ccccc3nc2c2c(=O)n(Cc3ccc(Cl)cc3)cnc21", "max dye-equivalent concentration": "active: 390 nM"}, {"smiles": "CCn1ncc2c1C(=O)NC1c3ccccc3C(=O)N21", "note": "(centres undefined)", "max dye-equivalent concentration": "active: 52 nM"}, {"smiles": "Cc1nn(C)c(C)c1CN(C)C(=O)c1cc2nc(-c3ccco3)cc(C(F)(F)F)n2n1", "max dye-equivalent concentration": "active: 140 nM"}, {"smiles": "CCC(=O)Nc1ccc(C(=O)Nc2ccc3c(c2)C(=O)N(CC2CCCO2)C3=O)cc1", "note": "(centres undefined)", "max dye-equivalent concentration": "active: 150 nM"}, {"smiles": "COc1ccc(-c2oc3ccc(C)cc3c(=O)c2O)cc1OC", "max dye-equivalent concentration": "active: 44 nM"}, {"smiles": "CCC(=O)N1CCN(c2ccccc2NC(=O)c2cccc(C)c2)CC1", "max dye-equivalent concentration": "active: 3800 nM"}, {"smiles": "CCNc1ncc2nc(-c3cn(C)c4ccccc34)c(=O)n(Cc3ccc(F)cc3)c2n1", "max dye-equivalent concentration": "inconclusive: 1.2 nM"}, {"smiles": "O=C(CN1C(=O)C2CCCN2C(=O)c2ccccc21)Nc1ccccc1-n1cccc1", "note": "(centres undefined)", "max dye-equivalent concentration": "inconclusive: 2.3 nM"}, {"smiles": "Cc1ccc(-c2nnn(CC(=O)N3CCCCC3)n2)c(-n2cnnn2)c1", "max dye-equivalent concentration": "inconclusive: 1.4 nM"}, {"smiles": "CN(Cc1cc(Cl)cc(Cl)c1O)Cc1c(O)ccc2ccccc12", "max dye-equivalent concentration": "inconclusive: 6.3 nM"}, {"smiles": "COc1ncc2nc(C)c(=O)n(Cc3cccs3)c2n1", "max dye-equivalent concentration": "inactive"}, {"smiles": "Cc1[nH]nc(N=CC2=C(O)CC(c3ccco3)CC2=O)c1-c1ccccc1", "note": "(centres undefined)", "max dye-equivalent concentration": "active: 32 nM"}, {"smiles": "Cc1occc1-c1nnc(SCC(=O)c2cc3ccccc3oc2=O)o1", "max dye-equivalent concentration": "active: 12 nM"}, {"smiles": "CCOC(=O)C1CCN(C(=O)CCNC(=O)c2cc(OC)c(OC)c(OC)c2)CC1", "max dye-equivalent concentration": "inconclusive: 8.9 nM"}, {"smiles": "COc1ccc(-c2cc(N3CCCC3)n3ncnc3n2)cc1", "max dye-equivalent concentration": "inconclusive: 3.2 nM"}, {"smiles": "COc1ccc(OC)c(C2/C(=C(\\O)c3ccc(OC)c(Cl)c3)C(=O)C(=O)N2CCN(C)C)c1", "note": "(centres undefined)", "max dye-equivalent concentration": "inconclusive: 5.2 nM"}, {"smiles": "O=C(O)Cn1c2c(c3ccccc31)CCCC2", "max dye-equivalent concentration": "inconclusive: 2.5 nM"}, {"smiles": "C=CCNC(=O)C(C#N)c1nc2ccccc2nc1N1CCN(Cc2ccccc2)CC1", "note": "(centres undefined)", "max dye-equivalent concentration": "active: 20 nM"}, {"smiles": "CN(C)Cc1ccc(O)c(CCc2ccccc2)n1", "max dye-equivalent concentration": "inconclusive: 2 nM"}, {"smiles": "CC(C)Oc1ccc(C2c3c(oc4ccccc4c3=O)C(=O)N2CCCN2CCOCC2)cc1", "note": "(centres undefined)", "max dye-equivalent concentration": "inconclusive: 1.6 nM"}, {"smiles": "COc1ccc(C(=O)OCCN2CCOCC2)cc1OC", "max dye-equivalent concentration": "inconclusive: 1.6 nM"}, {"smiles": "CC(C)C(NC(=O)c1cccc(S(=O)(=O)N2CCOCC2)c1)C(=O)NCCc1ccccn1", "note": "(centres undefined)", "max dye-equivalent concentration": "inconclusive: 1.9 nM"}, {"smiles": "O=C(NCC(=O)N(CC1CCCO1)C(C(=O)NC1CCCCC1)c1ccc(F)cc1)c1ccco1", "note": "(centres undefined)", "max dye-equivalent concentration": "inconclusive: 1.6 nM"}, {"smiles": "O=C(NCCc1c[nH]c2ccccc12)C1Cc2ccccc2CN1C(=O)c1ccco1", "note": "(centres undefined)", "max dye-equivalent concentration": "inactive"}, {"smiles": "CC(O)/C=C/c1cccc[n+]1C", "note": "(centres undefined)", "max dye-equivalent concentration": "inconclusive: 3.3 nM"}, {"smiles": "CCn1ccc(C(=O)Nc2ccc(N(C)C(C)=O)cc2)n1", "max dye-equivalent concentration": "inconclusive: 4.8 nM"}, {"smiles": "CC1CCC2C(C1)c1sc(=O)[nH]c1SC2(C)C", "note": "(centres undefined)", "max dye-equivalent concentration": "inactive"}, {"smiles": "CN1CCN(c2ncc3nc(-c4cc(F)cc(F)c4)c(=O)n(CCc4ccccc4)c3n2)CC1", "max dye-equivalent concentration": "active: 14 nM"}, {"smiles": "CSc1nc(N)c2ncn([C@@H]3O[C@@H](COP(=O)(O)OP(=O)(O)OP(=O)(O)O)[C@@H](O)[C@H]3O)c2n1", "max dye-equivalent concentration": "inconclusive: 2.3 nM"}, {"smiles": "Cc1ccc2cccc(Oc3nnnn3-c3ccccc3)c2n1", "max dye-equivalent concentration": "inactive"}, {"smiles": "Cc1cccc2c(=O)oc(-c3ccc4c(c3)C(=O)N(CC3CCCO3)C4=O)nc12", "note": "(centres undefined)", "max dye-equivalent concentration": "inconclusive: 5.4 nM"}, {"smiles": "CC(C)(C)c1csc(NC(=O)c2cccs2)n1", "max dye-equivalent concentration": "inconclusive: 4.8 nM"}, {"smiles": "Cc1cc2n(n1)C(c1sccc1C)Nc1ccccc1-2", "note": "(centres undefined)", "max dye-equivalent concentration": "active: 12 nM"}, {"smiles": "COc1cc2nc(N3CCN(C(=O)[C@@H]4COc5ccccc5O4)CC3)nc(N)c2cc1OC", "max dye-equivalent concentration": "active: 170 nM"}, {"smiles": "c1cc2c(cc1Oc1nc(N3CCOCC3)nc(N3CCOCC3)n1)OCO2", "max dye-equivalent concentration": "inconclusive: 2 nM"}, {"smiles": "Cc1cc(OCC(=O)Nc2ccc(S(=O)(=O)N3CCN(C)CC3)cc2)cc(C)c1Cl", "max dye-equivalent concentration": "inconclusive: 6.1 nM"}, {"smiles": "COC(=O)c1[nH]c2ccc(Cl)cc2c1NC(=O)CCN1CCN(C2CCCCC2)CC1", "max dye-equivalent concentration": "inconclusive: 3.1 nM"}, {"smiles": "CCn1c(=N)n(CCO)c2ccccc21", "max dye-equivalent concentration": "inactive"}, {"smiles": "O=C(CCC(=O)c1ccc(F)cc1)OC1CCOC1=O", "note": "(centres undefined)", "max dye-equivalent concentration": "inactive"}, {"smiles": "CCOc1ccc(OCc2ccc(C(=O)NCC3CCCO3)o2)cc1", "note": "(centres undefined)", "max dye-equivalent concentration": "inconclusive: 6.4 nM"}, {"smiles": "COc1cccc(Nc2ncc3nc(C)c(=O)n(CCc4ccccc4)c3n2)c1", "max dye-equivalent concentration": "inactive"}, {"smiles": "Cc1cc2oc(=O)cc(C)c2c(=O)o1", "max dye-equivalent concentration": "inconclusive: 7.3 nM"}, {"smiles": "CCOc1ccccc1C(=O)NCCCn1ccnc1", "max dye-equivalent concentration": "inactive"}, {"smiles": "O=C(COC(=O)C1CC1)Nc1ccc(Oc2ccccc2)cc1", "max dye-equivalent concentration": "inconclusive: 1.1 nM"}, {"smiles": "COc1ccccc1CNc1cc(-c2ccccc2C)ncn1", "max dye-equivalent concentration": "inactive"}, {"smiles": "O=S(=O)(c1ccc(Br)cc1)N1CCN(c2cc(-c3ccccc3)nc3ncnn23)CC1", "max dye-equivalent concentration": "inconclusive: 5.4 nM"}, {"smiles": "CC1CCCC(NC(=O)COC(=O)c2ccc(S(=O)(=O)N3CCOCC3)cc2)C1C", "note": "(centres undefined)", "max dye-equivalent concentration": "inconclusive: 1.6 nM"}, {"smiles": "CC(=O)Oc1ccc(NC(=O)CSc2ccccc2)cc1", "max dye-equivalent concentration": "inactive"}, {"smiles": "Cc1ccc(C(C(=O)NC2CCCC2)N(Cc2ccc(F)cc2)C(=O)c2csnn2)o1", "note": "(centres undefined)", "max dye-equivalent concentration": "inconclusive: 1.3 nM"}, {"smiles": "CCCN1CC=C2C(C#N)=C(N)C(C#N)(C#N)C(c3cc(OC)ccc3OC)C2C1", "note": "(centres undefined)", "max dye-equivalent concentration": "active: 110 nM"}, {"smiles": "N#Cc1ccc(CN2CCCC3(CCN(C(=O)c4cnccn4)CC3)C2)cc1", "max dye-equivalent concentration": "active: 11 nM"}, {"smiles": "O=C(NCc1ccco1)c1cccn2c(=O)c3cc(Br)ccc3nc12", "max dye-equivalent concentration": "inconclusive: 6.1 nM"}, {"smiles": "CC(C(=O)O)c1cccc(C(=O)c2ccccc2)c1", "note": "(centres undefined)", "max dye-equivalent concentration": "inconclusive: 5 nM"}, {"smiles": "Cc1ccc(C(=O)Cn2c(N3CCOCC3)nc3c2c(=O)n(C)c(=O)n3C)cc1", "max dye-equivalent concentration": "inconclusive: 1.5 nM"}, {"smiles": "O=C(C1CCCN(Cc2cccs2)C1)N1CCCCCC1", "note": "(centres undefined)", "max dye-equivalent concentration": "inconclusive: 1.2 nM"}, {"smiles": "Fc1cccc2sc(Nc3nnc(-c4ccco4)o3)nc12", "max dye-equivalent concentration": "active: 39 nM"}, {"smiles": "O=C(O)CCNc1ccc2c(c1)OCCO2", "max dye-equivalent concentration": "inconclusive: 9.4 nM"}, {"smiles": "CCOC(=O)Cn1nnc(-c2cccc(OC)c2)n1", "max dye-equivalent concentration": "inactive"}, {"smiles": "CSc1nnc2c(n1)OC(C)N(C(=O)c1ccccc1)c1ccccc1-2", "note": "(centres undefined)", "max dye-equivalent concentration": "inconclusive: 3.6 nM"}, {"smiles": "COc1c(-c2ccccc2)oc2c(ccc3occc32)c1=O", "max dye-equivalent concentration": "inactive"}, {"smiles": "COCCn1c(N2CCN(c3ccc(OC)cc3)CC2)nc2c1c(=O)[nH]c(=O)n2C", "max dye-equivalent concentration": "inconclusive: 1.2 nM"}, {"smiles": "Cc1ccc(Cn2c(C)nc3c(c2=O)c2nc4ccccc4nc2n3Cc2ccco2)cc1", "max dye-equivalent concentration": "active: 1000 nM"}, {"smiles": "O=C(CN1CCN(CC(=O)Nc2ccc3c(c2)OCO3)CC1)Nc1ccc(F)cc1", "max dye-equivalent concentration": "inconclusive: 2.8 nM"}, {"smiles": "CCCCC(=O)Nc1ccc2c3c(cccc13)C(=O)N2CC", "max dye-equivalent concentration": "inconclusive: 2 nM"}, {"smiles": "COc1ccc(C(=O)Nc2nc(-c3cccs3)cs2)cc1", "max dye-equivalent concentration": "inconclusive: 3.3 nM"}, {"smiles": "Nn1c(SCc2nc3ccccc3[nH]2)nnc1C1CCCCC1", "max dye-equivalent concentration": "inconclusive: 8.5 nM"}, {"smiles": "COc1ccc(-c2cn3cccnc3n2)cc1NC(=O)C1CC1", "max dye-equivalent concentration": "active: 72 nM"}, {"smiles": "CCN(CC)C(c1ccc(F)cc1)c1nnnn1C1CCCCC1", "note": "(centres undefined)", "max dye-equivalent concentration": "inconclusive: 8.6 nM"}, {"smiles": "O=C(CN1CCC(O)(c2ccccc2F)CC1)NCCc1c[nH]c2ccccc12", "max dye-equivalent concentration": "inactive"}, {"smiles": "COC(=O)C1(CCSC)NC(c2ccc(O)cc2)C2C(=O)N(c3ccc4c(c3)OCCO4)C(=O)C21", "note": "(centres undefined)", "max dye-equivalent concentration": "inactive"}, {"smiles": "CCC1SC2=NC(C)=C(C(=O)OC)C(c3cccs3)N2C1=O", "note": "(centres undefined)", "max dye-equivalent concentration": "inactive"}, {"smiles": "NC(N)=NC(=O)c1nc(Cl)c(N2CCCCCC2)nc1N", "max dye-equivalent concentration": "inconclusive: 6 nM"}, {"smiles": "CC(C)Cn1nc(NC(=O)C2CCCO2)c2cc3ccccc3nc21", "note": "(centres undefined)", "max dye-equivalent concentration": "active: 220 nM"}, {"smiles": "CCOC(=O)CSc1nnc(-c2ccncc2)o1", "max dye-equivalent concentration": "inactive"}, {"smiles": "COc1ccc(C(=O)Nc2cc(Cl)ccc2Cl)c(OC)n1", "max dye-equivalent concentration": "inconclusive: 3.1 nM"}, {"smiles": "CC1=C(CC(=O)O)c2cc(F)ccc2/C1=C\\c1ccc(S(C)(=O)=O)cc1", "max dye-equivalent concentration": "inconclusive: 1.4 nM"}, {"smiles": "COCCCNC(=O)Cn1nc(-c2ccc(C)cc2)ccc1=O", "max dye-equivalent concentration": "inconclusive: 1.4 nM"}, {"smiles": "COC(=O)CSc1nnc(-c2ccc(NS(=O)(=O)c3ccccc3)cc2)o1", "max dye-equivalent concentration": "inconclusive: 1.2 nM"}, {"smiles": "Cc1nn2c3ccccc3nc2n(C)c1=O", "max dye-equivalent concentration": "inconclusive: 2.2 nM"}]}]}
